Legend:
Assay in all cases: drug sensitivity score (DSS) from 5-dose viability curve (DSS (area-based score, 0 = no response)); higher = more sensitive (stronger viability inhibition); extreme values may be limits of the assay
[1] = test system: MDCK wild-type - doxycycline; settings: doxycycline: none; 72 h
How it was run: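 Parental MDCK cells without doxycycline were dispensed at 2000 cells/well onto pre-spotted 384-well plates. The plates held an oncology library of 528 drugs at five doses (1-10,000 nM) and were incubated 72 h at 37 °C. Viability was read as CellTiter-Glo luminescence and scaled per plate between vehicle and positive controls. Drug sensitivity scores came from dose-response curve fits in the Breeze pipeline.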

[2] = test system: MDCK p60AmotL2-inducible + doxycycline (p60AmotL2 expressing); settings: doxycycline: 10 ng/mL; 72 h
How it was run: (§1)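 Parental MDCK cells and MDCK cells with a doxycycline-inducible transgene were both grown with doxycycline at 10 ng/mL in the medium before plating, then dispensed at 2000 cells/well into 384-well plates pre-spotted with an oncology library of 528 drugs at five doses (1-10,000 nM). After 72 h at 37 °C, CellTiter-Glo luminescence was recorded and scaled on each plate between vehicle and positive controls. This scaled signal served as the viability readout, and drug sensitivity scores were derived from dose-response curve fits in the Breeze pipeline.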

[3] = test system: MDCK wild-type + doxycycline; settings: doxycycline: 10 ng/mL; 72 h
How it was run: as §1

SMILES: C[C@@H]1C[C@H](N)C[C@H](c2ccncc2NC(=O)c2ccc(F)c(-c3c(F)cccc3F)n2)C1 [PIM-447]
- drug sensitivity score [1]: 0
- drug sensitivity score [2]: 3.1
- drug sensitivity score [3]: 3.4

— the supplement of paper PMC11003180
